From US20210276971A1, “TRIAZAMACROCYCLE-DERIVED CHELATOR COMPOSITIONS FOR COORDINATION OF IMAGING AND THERAPY METAL IONS AND METHODS OF USING SAME” (The Research Foundation for The State University of New York, priority 2018, published 2021)

Test: Concentration-, time- and temperature-dependent radiolabeling with ^44Sc
Assay type: physicochemical
Settings: for Time-dependent complexation, % as Sc-Ligand: 10 nmol; for Apparent Molar Activity: ^44Sc

O=C(O)CC[C@H](NC(=O)N[C@@H](CCC(=O)NCCCCCNC(=O)CCC(C(=O)O)N1CCN(CC(=O)O)CCN(Cc2cccc(C(=O)O)n2)CC1)C(=O)O)C(=O)O (stereo in doubt) [PICAGA, 2-{3-[(R)-1-Carboxy-4-[5-(4-carboxy-4-{7-(carboxymethyl)-4-[(6-carboxy-2-pyridyl)methyl]-1,4,7-triazonan-1-yl}butyrylamino)pentylamino]-4-oxobutyl]ureido}glutaric acid]
Time-dependent complexation, % as Sc-Ligand (t = 10 min, 80° C.): 96.1%
Time-dependent complexation, % as Sc-Ligand (t = 10 min, RT): 70.8%
Time-dependent complexation, % as Sc-Ligand (t = 30 min, 80° C.): 96.7%
Time-dependent complexation, % as Sc-Ligand (t = 30 min, RT): 72.4%
Time-dependent complexation, % as Sc-Ligand (t = 60 min, 80° C.): 93.7%
Time-dependent complexation, % as Sc-Ligand (t = 60 min, RT): 78.8%
Apparent Molar Activity (80° C.): 0.500 Ci/μmol
Apparent Molar Activity (Room Temp): 0.728 Ci/μmol

O=C(O)CN1CCN(Cc2cccc(C(=O)O)n2)CCN(Cc2cccc(C(=O)O)n2)CC1 [NO1A2PIC]
Time-dependent complexation, % as Sc-Ligand (t = 10 min, 80° C.): 94.3%
Time-dependent complexation, % as Sc-Ligand (t = 10 min, RT): 38.3%
Time-dependent complexation, % as Sc-Ligand (t = 30 min, 80° C.): 97.7%
Time-dependent complexation, % as Sc-Ligand (t = 30 min, RT): 48.2%
Time-dependent complexation, % as Sc-Ligand (t = 60 min, 80° C.): 93.5%
Time-dependent complexation, % as Sc-Ligand (t = 60 min, RT): 53.6%
Apparent Molar Activity (80° C.): 1.483 Ci/μmol
Apparent Molar Activity (Room Temp): 0.0547 Ci/μmol

O=C(O)CN1CCN(CC(=O)O)CCN(Cc2cccc(C(=O)O)n2)CC1 [MONOPIC, 6-{[4,7-Bis(carboxymethyl)-1,4,7-triazonan-1-yl]methyl}-2-pyridinecarboxylic acid]
Time-dependent complexation, % as Sc-Ligand (t = 10 min, 80° C.): 94.5%
Time-dependent complexation, % as Sc-Ligand (t = 30 min, 80° C.): 92.1%
Time-dependent complexation, % as Sc-Ligand (t = 30 min, RT): 86.7%
Time-dependent complexation, % as Sc-Ligand (t = 60 min, 80° C.): 95.5%
Time-dependent complexation, % as Sc-Ligand (t = 60 min, RT): 84.5%
Apparent Molar Activity (80° C.): 0.599 Ci/μmol
Apparent Molar Activity (Room Temp): 0.399 Ci/μmol

O=C(O)c1cccc(CN2CCN(Cc3cccc(C(=O)O)n3)CCN(Cc3cccc(C(=O)O)n3)CC2)n1 [NO3PIC]
Time-dependent complexation, % as Sc-Ligand (t = 10 min, 80° C.): 71.1%
Time-dependent complexation, % as Sc-Ligand (t = 10 min, RT): 44.3%
Time-dependent complexation, % as Sc-Ligand (t = 30 min, 80° C.): 75.1%
Time-dependent complexation, % as Sc-Ligand (t = 30 min, RT): 45.4%
Time-dependent complexation, % as Sc-Ligand (t = 60 min, 80° C.): 73.3%
Time-dependent complexation, % as Sc-Ligand (t = 60 min, RT): 43.4%
Apparent Molar Activity (80° C.): 0.0969 Ci/μmol

O=C(O)CN1CCN(CC(=O)O)CCN(CC(=O)O)CCN(CC(=O)O)CC1 [DOTA, reference compound]
Time-dependent complexation, % as Sc-Ligand (t = 10 min, 80° C.): 78.9%
Time-dependent complexation, % as Sc-Ligand (t = 10 min, RT): 69.6%
Time-dependent complexation, % as Sc-Ligand (t = 30 min, 80° C.): 76.6%
Time-dependent complexation, % as Sc-Ligand (t = 30 min, RT): 69.4%
Time-dependent complexation, % as Sc-Ligand (t = 60 min, 80° C.): 74%
Time-dependent complexation, % as Sc-Ligand (t = 60 min, RT): 67%
Apparent Molar Activity (80° C.): 3.616 Ci/μmol
Apparent Molar Activity (Room Temp): 1.268 Ci/μmol
